Reference: article PMC11847914
Results are given in words; binding and its absence hold for the method and conditions named. Binding seen in cells or lysates may run through a third protein. Here binding means that the protein was enriched with, or labelled near, the bait; the list need not be complete.

By UniProt entry, the sequences of proteins in these tests, tags left out.
UniProt O95931: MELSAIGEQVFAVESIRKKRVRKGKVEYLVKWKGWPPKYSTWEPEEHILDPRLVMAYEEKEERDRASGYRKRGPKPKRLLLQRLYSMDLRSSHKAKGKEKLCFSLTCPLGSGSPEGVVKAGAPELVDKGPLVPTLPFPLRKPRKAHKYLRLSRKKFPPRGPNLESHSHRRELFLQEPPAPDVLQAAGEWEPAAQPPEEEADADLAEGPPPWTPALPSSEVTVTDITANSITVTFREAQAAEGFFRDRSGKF
UniProt Q06587: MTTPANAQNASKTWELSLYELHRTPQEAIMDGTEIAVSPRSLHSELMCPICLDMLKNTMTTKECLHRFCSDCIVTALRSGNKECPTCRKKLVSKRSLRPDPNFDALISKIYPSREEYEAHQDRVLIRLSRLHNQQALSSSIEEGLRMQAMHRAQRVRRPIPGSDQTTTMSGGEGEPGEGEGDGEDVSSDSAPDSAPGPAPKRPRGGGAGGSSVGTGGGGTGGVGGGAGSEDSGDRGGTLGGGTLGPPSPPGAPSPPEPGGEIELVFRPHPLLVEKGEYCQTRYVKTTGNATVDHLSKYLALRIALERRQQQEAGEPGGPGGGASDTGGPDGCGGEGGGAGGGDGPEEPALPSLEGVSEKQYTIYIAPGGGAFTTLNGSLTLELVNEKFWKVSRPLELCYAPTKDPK
UniProt P35579: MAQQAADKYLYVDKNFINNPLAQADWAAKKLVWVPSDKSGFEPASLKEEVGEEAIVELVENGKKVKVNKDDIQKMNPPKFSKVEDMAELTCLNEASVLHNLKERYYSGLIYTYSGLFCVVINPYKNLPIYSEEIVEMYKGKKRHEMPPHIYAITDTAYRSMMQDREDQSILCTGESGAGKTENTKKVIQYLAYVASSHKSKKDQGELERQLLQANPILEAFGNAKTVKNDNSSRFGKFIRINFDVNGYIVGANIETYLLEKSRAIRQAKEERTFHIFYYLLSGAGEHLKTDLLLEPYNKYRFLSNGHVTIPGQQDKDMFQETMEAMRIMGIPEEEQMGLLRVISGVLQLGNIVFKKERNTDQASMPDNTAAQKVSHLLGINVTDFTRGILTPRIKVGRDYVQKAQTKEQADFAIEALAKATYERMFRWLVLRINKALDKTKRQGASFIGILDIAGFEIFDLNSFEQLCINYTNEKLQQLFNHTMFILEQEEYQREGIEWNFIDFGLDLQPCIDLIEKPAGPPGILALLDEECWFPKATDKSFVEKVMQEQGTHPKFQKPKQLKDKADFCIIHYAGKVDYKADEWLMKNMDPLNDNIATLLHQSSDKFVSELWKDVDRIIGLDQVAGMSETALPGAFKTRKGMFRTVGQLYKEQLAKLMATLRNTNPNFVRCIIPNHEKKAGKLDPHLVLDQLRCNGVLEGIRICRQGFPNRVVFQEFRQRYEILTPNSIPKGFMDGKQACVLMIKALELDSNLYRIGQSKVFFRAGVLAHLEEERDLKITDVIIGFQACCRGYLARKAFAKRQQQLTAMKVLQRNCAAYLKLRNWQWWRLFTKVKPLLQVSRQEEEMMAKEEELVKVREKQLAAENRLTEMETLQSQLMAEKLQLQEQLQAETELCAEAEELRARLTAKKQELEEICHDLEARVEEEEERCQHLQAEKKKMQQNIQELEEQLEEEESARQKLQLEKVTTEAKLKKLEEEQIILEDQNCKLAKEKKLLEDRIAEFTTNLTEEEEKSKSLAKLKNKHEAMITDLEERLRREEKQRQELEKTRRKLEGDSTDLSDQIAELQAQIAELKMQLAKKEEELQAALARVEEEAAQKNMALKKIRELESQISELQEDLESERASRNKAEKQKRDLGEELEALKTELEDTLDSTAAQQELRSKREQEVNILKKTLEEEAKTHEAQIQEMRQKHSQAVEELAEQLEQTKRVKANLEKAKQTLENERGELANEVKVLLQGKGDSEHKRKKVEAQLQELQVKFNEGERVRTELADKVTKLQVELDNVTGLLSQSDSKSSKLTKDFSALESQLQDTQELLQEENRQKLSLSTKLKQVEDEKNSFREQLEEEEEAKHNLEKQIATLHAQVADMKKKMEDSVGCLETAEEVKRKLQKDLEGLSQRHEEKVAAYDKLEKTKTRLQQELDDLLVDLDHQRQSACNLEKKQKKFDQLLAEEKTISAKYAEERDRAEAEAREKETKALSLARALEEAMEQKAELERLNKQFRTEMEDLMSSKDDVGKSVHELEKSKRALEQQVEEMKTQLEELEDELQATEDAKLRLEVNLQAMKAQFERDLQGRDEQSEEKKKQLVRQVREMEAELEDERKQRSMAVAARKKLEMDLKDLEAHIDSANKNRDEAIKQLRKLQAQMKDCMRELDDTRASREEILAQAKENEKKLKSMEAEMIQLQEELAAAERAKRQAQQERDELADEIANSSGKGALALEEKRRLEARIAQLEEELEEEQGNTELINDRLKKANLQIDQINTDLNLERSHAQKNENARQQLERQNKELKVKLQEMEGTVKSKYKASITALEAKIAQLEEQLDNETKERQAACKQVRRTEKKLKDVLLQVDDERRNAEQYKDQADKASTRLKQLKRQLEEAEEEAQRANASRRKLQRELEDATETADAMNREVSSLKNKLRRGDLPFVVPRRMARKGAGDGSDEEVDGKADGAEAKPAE

Target: Flag-tagged Chromobox protein homolog 7 (CBX7), adenoviral overexpression in U251 cells (human) (UniProt O95931)
Experiment: affinity purification with mass spectrometry; U251 cells transiently transfected with Flag-tagged CBX7 adenoviral vector; co-IP with anti-Flag antibody or IgG as control, then LC-MS/MS

Substance	binding
RING1A (RNF1), endogenous (from UniProt Q06587 1-406)	binds
myosin heavy chain 9 (MYH9), endogenous (from UniProt P35579 1-1960)	binds
